These are literature values, as cited in patent publication US20110082203A1, “PROCESS TO DIAGNOSE OR TREAT BRAIN INJURY” (priority 2008, published 2011).

The series deals with muscarinic receptors. The note with it: given at the time of injury; cited from earlier work.

With `CN1[C@@H]2C[C@@H](OC(=O)[C@H](CO)c3ccccc3)C[C@H]1[C@@H]1O[C@@H]12` [scopolamine], the “Acute decrease in PIP2 derived fatty acids after TBI” value is listed as “significantly blunts”.
